From patent US20070161007

Chains of the proteins cited; added tags and fusions are not shown. Lines headed by an entry give the natural chain unless they say otherwise; changes in a name come on top.
UniProt P14385: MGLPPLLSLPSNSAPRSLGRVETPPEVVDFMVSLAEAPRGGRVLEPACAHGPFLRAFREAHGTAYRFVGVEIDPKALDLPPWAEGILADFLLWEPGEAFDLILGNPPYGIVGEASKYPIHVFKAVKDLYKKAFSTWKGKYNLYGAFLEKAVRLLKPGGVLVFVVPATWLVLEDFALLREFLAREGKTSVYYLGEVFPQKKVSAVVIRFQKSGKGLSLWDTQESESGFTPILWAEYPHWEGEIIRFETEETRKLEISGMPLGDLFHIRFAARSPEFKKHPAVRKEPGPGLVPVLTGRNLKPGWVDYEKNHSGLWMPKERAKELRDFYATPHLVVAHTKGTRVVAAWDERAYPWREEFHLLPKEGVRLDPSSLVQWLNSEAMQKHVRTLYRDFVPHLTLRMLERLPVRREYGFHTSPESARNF

What was measured:
[1] = biological target: M.TaqI DNA methyltransferase (UniProt P14385); assay: activity assay; conditions: purified recombinant protein, protein details: New England Biolabs, label: 5'-32P on target strand
[2] = biological target: T1, M.EcoRI DNA methyltransferase (UniProt P00472); assay: activity assay; conditions: purified recombinant protein, protein details: New England Biolabs, label: 5'-32P on target strand
T1 sequence (looked up, limits assumed): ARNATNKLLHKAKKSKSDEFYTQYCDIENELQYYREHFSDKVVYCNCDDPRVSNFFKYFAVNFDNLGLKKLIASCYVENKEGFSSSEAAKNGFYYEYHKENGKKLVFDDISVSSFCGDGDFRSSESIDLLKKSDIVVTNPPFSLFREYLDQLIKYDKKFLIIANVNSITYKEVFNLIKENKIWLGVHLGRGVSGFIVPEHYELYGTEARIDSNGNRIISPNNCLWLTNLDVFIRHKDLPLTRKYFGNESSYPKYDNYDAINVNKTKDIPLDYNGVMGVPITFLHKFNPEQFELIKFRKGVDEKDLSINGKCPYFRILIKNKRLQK

Sequence: TGAATCTCGAGCACCC / GGGTGCTCGAGATTCAAA [M.TaqI 16-mer duplex]
- activity on this sequence ([1]; DPAGE shift, alkylation by cofactor analogs 3, 24a, 24b, 56, pH 6.0, 10 mM Mg(OAc)2, 37 C): active

Sequence: TGAATCTCGAGCACCC / GGGTGCTCGAGATTCAAA [M.TaqI duplex premethylated with SAM]
- activity on this sequence ([1]; N6-methyladenine at TCGA (enzymatic), no alkylation by 56 (50 uM) after SAM premethylation, activity not binding, variant of M.TaqI 16-mer duplex): not active

Sequence: TGAATGAATTCGACCC / GGGTCGAATTCATTCAAA [M.EcoRI 16-mer duplex]
- activity on this sequence ([2]; DPAGE shift, alkylation by cofactor analogs 3, 24a, 24b, 56, pH 7.4, EDTA, second slower adduct seen): active

Sequence: TGAATGAATTCGACCC / GGGTCGAATTCATTCAAA [M.EcoRI duplex premethylated with SAM]
- activity on this sequence ([2]; N6-methyladenine at GAATTC (enzymatic), no alkylation by 56 (50 uM) after SAM premethylation, activity not binding, variant of M.EcoRI 16-mer duplex): not active

A negative result means that nothing was seen under these conditions. For some of these results: Protein sequences can lack the tags named with them.
